Results deposited as PubChem BioAssay AID652243 (Drosophila RNAi Screening Center, 2013).
The deposit covers about 24,000 reagents; this is a random part of those that have a named target and a result. Over the whole deposit, 246 (1%) were called active. 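Plates not normalised; calls are printed but the firefly/Renilla ratio behind them is not deposited; fold cut for lowering reported inconsistently.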 Raw values vary from plate to plate and are shown uncorrected. A plus sign joins genes that one reagent is predicted to hit. Not stated in the record: the amount of reagent.

Assay: 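Fly regulators of androgen-dependent reporter output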 (primary screen)
Cell system: Drosophila S2R+ cells
Knock-down reagent: long dsRNA against Drosophila genes
Timing: 72 h (48 h, then 24 h hormone)
Conditions: synthetic androgen R1881 at 10 nM for 24 h
Detection: 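Firefly light from an androgen-responsive reporter and Renilla control light per well, raw and unnormalised, for each of two replicates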
Scale: firefly reporter light: higher = more light from androgen-responsive reporter; Renilla control light: higher = more constitutive control signal (cell number, transfection)
Call rule: 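Hit when the log firefly-to-Renilla ratio dropped or increased by a fixed fold versus the mean of GFP or LacZ controls across duplicate plates; lowering cut given as 1.5 and as 3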
Meaning of the calls: active = hit: reporter lowered or raised; inactive = no hit

Against Gr59e [DRSC04276], the values are firefly reporter light, replicate 1 = 4.16e5; firefly reporter light, replicate 2 = 3.17e5; Renilla control light, replicate 1 = 1.32e6; Renilla control light, replicate 2 = 1.35e6; inactive.
Depletion of CG4267 [DRSC00102] resulted in: firefly reporter light, replicate 1 = 1.78e5; firefly reporter light, replicate 2 = 1.62e5; Renilla control light, replicate 1 = 3.59e5; Renilla control light, replicate 2 = 3.51e5; inactive.
CG4267 [DRSC00647] showed firefly reporter light, replicate 1 = 94021; firefly reporter light, replicate 2 = 1.09e5; Renilla control light, replicate 1 = 8.77e5; Renilla control light, replicate 2 = 1.06e6; inactive.
CG4267 [DRSC28673] scored firefly reporter light, replicate 1 = 5.24e5; firefly reporter light, replicate 2 = 5.13e5; Renilla control light, replicate 1 = 1.34e6; Renilla control light, replicate 2 = 1.19e6; inactive.
CG4267 [DRSC29852] gave firefly reporter light, replicate 1 = 3.58e5; firefly reporter light, replicate 2 = 4.38e5; Renilla control light, replicate 1 = 1.02e6; Renilla control light, replicate 2 = 1.19e6; inactive.
Depletion of CG34308 [DRSC38663] gave: firefly reporter light, replicate 1 = 7.64e5; firefly reporter light, replicate 2 = 7.86e5; Renilla control light, replicate 1 = 2.33e6; Renilla control light, replicate 2 = 2.43e6; inactive.
Against Gr47a [DRSC06221], the entry reads firefly reporter light, replicate 1 = 3.08e5; firefly reporter light, replicate 2 = 2.09e5; Renilla control light, replicate 1 = 1.97e6; Renilla control light, replicate 2 = 1.69e6; inactive.
After knock-down of CG6144 [DRSC02934], the screen gave firefly reporter light, replicate 1 = 5.24e5; firefly reporter light, replicate 2 = 4.43e5; Renilla control light, replicate 1 = 3.23e6; Renilla control light, replicate 2 = 3.20e6; inactive.
With knock-down of mIF2 + CR40068 [DRSC37872], the screen gave firefly reporter light, replicate 1 = 9.16e5; firefly reporter light, replicate 2 = 9.58e5; Renilla control light, replicate 1 = 1.39e6; Renilla control light, replicate 2 = 1.32e6; inactive.
With knock-down of CG9630 [DRSC16527], the record shows firefly reporter light, replicate 1 = 68020; firefly reporter light, replicate 2 = 34341; Renilla control light, replicate 1 = 6.27e5; Renilla control light, replicate 2 = 3.13e5; inactive.
For CG31816 [DRSC01547] the deposit lists firefly reporter light, replicate 1 = 3.04e5; firefly reporter light, replicate 2 = 2.83e5; Renilla control light, replicate 1 = 7.51e5; Renilla control light, replicate 2 = 7.80e5; inactive.
Knock-down of CG6244 [DRSC10609] gave: firefly reporter light, replicate 1 = 2.88e5; firefly reporter light, replicate 2 = 2.60e5; Renilla control light, replicate 1 = 2.15e6; Renilla control light, replicate 2 = 1.14e6; inactive.
CG12682 [DRSC17873] scored firefly reporter light, replicate 1 = 2.23e5; firefly reporter light, replicate 2 = 2.66e5; Renilla control light, replicate 1 = 1.89e6; Renilla control light, replicate 2 = 1.99e6; inactive.
Silencing of Gr64d + Gr64e [DRSC08446] came out at: firefly reporter light, replicate 1 = 8.71e5; firefly reporter light, replicate 2 = 1.24e6; Renilla control light, replicate 1 = 1.47e6; Renilla control light, replicate 2 = 2.48e6; inactive.

As entered above.
Gr64d + Gr64e [DRSC08446], Renilla control light, replicate 1: 1.47e6
Result for Gr47a [DRSC06221] under “Call”: inactive
